{"source": "PubChem BioAssay AID248", "about": "(DTP/NCI, 2004)", "system": "L1210 leukemia ip in BDF1 mice, survival T/C", "experiment": "NCI In Vivo Anticancer Drug Screen. Data for tumor model L1210 Leukemia (intraperitoneal) in B6D2F1 (BDF1) mice", "details": "T/C endpoint: mean survival time, higher T/C = longer survival", "note": "The list shows only some results of the screen, not a fair sample: it gathers tests that were run many times, whatever their T/C, doses with no T/C, and many T/C values between a quarter and a half above the control. Other doses and runs of a compound stand elsewhere. T/C is the treated group as % of the vehicle group. Some entries give survivors of the animals treated and no T/C: the source holds a T/C of zero for them, seemingly a mark for toxic or unscored doses. Some survivor counts are full or nearly so, which does not show that the dose was tolerated: the source hardly ever lists a survival T/C far under the control, and the zero likely stands for such cases as well. Counts of survivors are from the toxicity check (mostly the fifth day) where no day follows; animals may have died later. Schedules are NCI's codes, taken here to give the interval after Q, in days (D) or hours (H), and the number of doses after X. Some schedule codes hold Z or #, which are not explained here. Some molecules as drawn cover several salts, stereoisomers or complexes of the source; a dose is that of the sample tested. Some entries hold several experiments; the results are listed from low to high. Where survival is the endpoint, the PubChem record calls one and a half times the control and up active, and a quarter to a half above the control has no call in these data; cut-offs in other NCI protocols can differ."}
{"molecule": "NC(CS)(CS)C(=O)O", "values": [{"measurement": "survivor count", "setting": "dose: 120.0 mg/kg/injection, schedule: Q01DX015 (ip), vehicle: carboxymethylcellulose (CMC)", "result": "1 of 6"}]}
{"molecule": "Cc1ccc(CNC(=S)Nc2ccccc2)cc1", "values": [{"measurement": "survivor count", "setting": "dose: 12.5 mg/kg/injection, schedule: Q01DX009 (ip), vehicle: Klucel (hydroxypropylcellulose) (HPC)", "result": "3 of 3"}, {"measurement": "survivor count", "setting": "dose: 25.0 mg/kg/injection, schedule: Q01DX009 (ip), vehicle: Klucel (hydroxypropylcellulose) (HPC)", "result": "3 of 3"}, {"measurement": "survivor count", "setting": "dose: 50.0 mg/kg/injection, schedule: Q01DX009 (ip), vehicle: Klucel (hydroxypropylcellulose) (HPC)", "result": "3 of 3"}, {"measurement": "survivor count", "setting": "dose: 100.0 mg/kg/injection, schedule: Q01DX009 (ip), vehicle: Klucel (hydroxypropylcellulose) (HPC)", "result": "3 of 3"}, {"measurement": "survivor count", "setting": "dose: 200.0 mg/kg/injection, schedule: Q01DX009 (ip), vehicle: Klucel (hydroxypropylcellulose) (HPC)", "result": "3 of 3"}]}
{"molecule": "CCCCCC#CCCCCl", "values": [{"measurement": "survivor count", "setting": "dose: 200.0 mg/kg/injection, schedule: Q01DX009 (ip), vehicle: carboxymethylcellulose (CMC)", "result": "3 of 3"}, {"measurement": "survivor count", "setting": "dose: 400.0 mg/kg/injection, schedule: Q04DX002 (ip), vehicle: carboxymethylcellulose (CMC)", "result": "1 of 3 and 6 of 6"}]}
{"molecule": "O=C(Nc1cccc(C2=NCCCN2)c1)Nc1ccc(NC(=O)Nc2cccc(C3=NCCCN3)c2)c(Cl)c1", "values": [{"measurement": "T/C", "setting": "dose: 1.87 mg/kg/injection, schedule: Q01DX Z (ip), vehicle: carboxymethylcellulose (CMC)", "result": "142 % of control"}, {"measurement": "T/C", "setting": "dose: 15.0 mg/kg/injection, schedule: Q01DX Z (ip), vehicle: carboxymethylcellulose (CMC)", "result": "143 % of control"}, {"measurement": "T/C", "setting": "dose: 18.0 mg/kg/injection, schedule: Q01DX001 (ip), vehicle: other", "result": "141 % of control"}, {"measurement": "survivor count", "setting": "dose: 30.0 mg/kg/injection, schedule: Q01DX Z (ip), vehicle: carboxymethylcellulose (CMC)", "result": "6 of 6"}, {"measurement": "survivor count", "setting": "dose: 62.0 mg/kg/injection, schedule: Q01DX Z (ip), vehicle: carboxymethylcellulose (CMC)", "result": "0 of 6"}, {"measurement": "survivor count", "setting": "dose: 90.0 mg/kg/injection, schedule: Q01DX001 (ip), vehicle: carboxymethylcellulose (CMC)", "result": "1 of 10"}, {"measurement": "survivor count", "setting": "dose: 90.0 mg/kg/injection, schedule: Q01DX001 (ip), vehicle: other", "result": "0 of 10"}, {"measurement": "survivor count", "setting": "dose: 125.0 mg/kg/injection, schedule: Q01DX Z (ip), vehicle: carboxymethylcellulose (CMC)", "result": "0 of 6"}, {"measurement": "survivor count", "setting": "dose: 250.0 mg/kg/injection, schedule: Q01DX Z (ip), vehicle: carboxymethylcellulose (CMC)", "result": "0 of 6"}, {"measurement": "survivor count", "setting": "dose: 500.0 mg/kg/injection, schedule: Q01DX Z (ip), vehicle: carboxymethylcellulose (CMC)", "result": "0 of 6"}]}
{"molecule": "CC1=C(N=[N+]=[N-])C(=O)C(C)=C(N=[N+]=[N-])C1=O", "values": [{"measurement": "survivor count", "setting": "dose: 100.0 mg/kg/injection, schedule: Q01DX001 (ip), vehicle: saline", "result": "4 of 4"}, {"measurement": "survivor count", "setting": "dose: 200.0 mg/kg/injection, schedule: Q01DX001 (ip), vehicle: saline", "result": "1 of 4"}, {"measurement": "survivor count", "setting": "dose: 400.0 mg/kg/injection, schedule: Q01DX001 (ip), vehicle: saline", "result": "0 of 4"}]}
{"molecule": "C[N+](C)(C)CCOC(=O)Nc1ccc(C(c2ccc(NC(=O)OCC[N+](C)(C)C)cc2)c2ccc(NC(=O)OCC[N+](C)(C)C)cc2)cc1", "values": [{"measurement": "survivor count", "setting": "dose: 1.0 mg/kg/injection, schedule: Q01DX009 (ip), vehicle: saline with Tween-80", "result": "1 of 6"}, {"measurement": "survivor count", "setting": "dose: 5.0 mg/kg/injection, schedule: Q04DX003 (ip), vehicle: saline", "result": "0 of 6"}, {"measurement": "survivor count", "setting": "dose: 10.0 mg/kg/injection, schedule: Q04DX003 (ip), vehicle: saline", "result": "0 of 6"}, {"measurement": "survivor count", "setting": "dose: 20.0 mg/kg/injection, schedule: Q04DX003 (ip), vehicle: saline", "result": "0 of 6"}, {"measurement": "survivor count", "setting": "dose: 100.0 mg/kg/injection, schedule: Q04DX003 (ip), vehicle: saline", "result": "0 of 6"}, {"measurement": "survivor count", "setting": "dose: 200.0 mg/kg/injection, schedule: Q04DX003 (ip), vehicle: saline", "result": "0 of 6"}, {"measurement": "survivor count", "setting": "dose: 400.0 mg/kg/injection, schedule: Q04DX003 (ip), vehicle: saline", "result": "0 of 6"}]}
{"molecule": "NC(=S)N/N=C/c1ccc([N+](=O)[O-])s1", "values": [{"measurement": "survivor count", "setting": "dose: 400.0 mg/kg/injection, schedule: Q04DX003 (ip), vehicle: water", "result": "6 of 6"}]}
{"molecule": "Cn1nc(SCc2ccccc2)c(=O)[nH]c1=O", "values": [{"measurement": "survivor count", "setting": "dose: 300.0 mg/kg/injection, schedule: Q01DX001 (ip), vehicle: saline", "result": "0 of 6"}]}
{"molecule": "CCOc1ccc(NC(=O)NCCBr)cc1", "values": [{"measurement": "survivor count", "setting": "dose: 200.0 mg/kg/injection, schedule: Q01DX009 (ip), vehicle: saline with Tween-80", "result": "3 of 3"}]}
{"molecule": "O=C1OC(CN2CCOCC2)CN1/N=C/c1ccc([N+](=O)[O-])o1", "note": "(stereo not drawn)", "values": [{"measurement": "survivor count", "setting": "dose: 400.0 mg/kg/injection, schedule: Q04DX002 (ip), vehicle: Klucel (hydroxypropylcellulose) (HPC)", "result": "1 of 3"}, {"measurement": "survivor count", "setting": "dose: 400.0 mg/kg/injection, schedule: Q04DX002 (ip), vehicle: saline", "result": "2 of 3"}]}
